Measurements reported in PubChem BioAssay AID1224830 (NIAID, 2016)
In all, the deposit lists about 18,000 reagents; below is a part drawn at random. About 2,900 of them (16%) count as active. 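Calls are made per well; low scores hint the gene aids the LPS response, high scores that it dampens it.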 Entries without a mark were called inactive. Repeated entries: four replicate wells of each siRNA pool.

- Test: 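Genes whose knock-down alters the TNF-alpha reporter response to LPS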 (primary screen)
- Cells: human THP-1 monocytic leukaemia cells, TNF dual-luciferase reporter clone, PMA-differentiated to macrophage-like cells
- Reagent: siRNA pool against human genes, 50 nM
- Timing: LPS for 4 h, given about 3 days after siRNA transfection
- Challenge: bacterial LPS (TLR4 ligand), 10 ng/ml
- Measured: 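TNF firefly reporter luminescence divided by renilla, normalised to the plate median, then turned into a robust z-score for each replicate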
- Direction: TNF reporter robust z-score: higher = stronger TNF reporter response to LPS
- Hit rule: 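a well is active when its z-score exceeds 2.8 or falls below -1.5; control wells carry no call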

target gene,TNF reporter robust z-score
"WRAP73 (WD repeat containing, antisense to TP73)",3.75 (active)
"WRAP73 (WD repeat containing, antisense to TP73)",2.48
"WRAP73 (WD repeat containing, antisense to TP73)",1.8
"WRAP73 (WD repeat containing, antisense to TP73)",2.07
GJA10 (gap junction protein alpha 10),0.85
GJA10 (gap junction protein alpha 10),1.95
GJA10 (gap junction protein alpha 10),1.84
GJA10 (gap junction protein alpha 10),1.92
SOWAHB (sosondowah ankyrin repeat domain family member B),-1.84 (active)
SOWAHB (sosondowah ankyrin repeat domain family member B),-2.08 (active)
SOWAHB (sosondowah ankyrin repeat domain family member B),-1.89 (active)
SOWAHB (sosondowah ankyrin repeat domain family member B),-1.82 (active)
LGALS13 (galectin 13),1.26
LGALS13 (galectin 13),0.15
LGALS13 (galectin 13),0.17
LGALS13 (galectin 13),1.65
OXCT2 (3-oxoacid CoA-transferase 2),-0.1
OXCT2 (3-oxoacid CoA-transferase 2),1.07
OXCT2 (3-oxoacid CoA-transferase 2),0.18
OXCT2 (3-oxoacid CoA-transferase 2),1.16
OR52A1 (olfactory receptor family 52 subfamily A member 1),-0.69
OR52A1 (olfactory receptor family 52 subfamily A member 1),-0.72
OR52A1 (olfactory receptor family 52 subfamily A member 1),-0.58
OR52A1 (olfactory receptor family 52 subfamily A member 1),0.36
SCLT1 (sodium channel and clathrin linker 1),-0.44
SCLT1 (sodium channel and clathrin linker 1),0.28
SCLT1 (sodium channel and clathrin linker 1),-0.19
SCLT1 (sodium channel and clathrin linker 1),0.06
NANOS2 (nanos C2HC-type zinc finger 2),-0.61
NANOS2 (nanos C2HC-type zinc finger 2),2.53
NANOS2 (nanos C2HC-type zinc finger 2),1.31
NANOS2 (nanos C2HC-type zinc finger 2),-0.09
GPBP1L1 (GC-rich promoter binding protein 1 like 1),-0.67
GPBP1L1 (GC-rich promoter binding protein 1 like 1),-1.37
GPBP1L1 (GC-rich promoter binding protein 1 like 1),-0.4
GPBP1L1 (GC-rich promoter binding protein 1 like 1),-0.34
RBM15 (RNA binding motif protein 15),1.59
RBM15 (RNA binding motif protein 15),3.14 (active)
RBM15 (RNA binding motif protein 15),4.96 (active)
RBM15 (RNA binding motif protein 15),1.05
STK25 (serine/threonine kinase 25),1.53
STK25 (serine/threonine kinase 25),0.86
STK25 (serine/threonine kinase 25),1.71
STK25 (serine/threonine kinase 25),2.12
AKR1C3 (aldo-keto reductase family 1 member C3),-0.56
AKR1C3 (aldo-keto reductase family 1 member C3),0.14
AKR1C3 (aldo-keto reductase family 1 member C3),-0.37
AKR1C3 (aldo-keto reductase family 1 member C3),0.17

Entries listed so far with an active call (7):
target gene,TNF reporter robust z-score
"WRAP73 (WD repeat containing, antisense to TP73)",3.75 (active)
SOWAHB (sosondowah ankyrin repeat domain family member B),-1.84 (active)
SOWAHB (sosondowah ankyrin repeat domain family member B),-2.08 (active)
SOWAHB (sosondowah ankyrin repeat domain family member B),-1.89 (active)
SOWAHB (sosondowah ankyrin repeat domain family member B),-1.82 (active)
RBM15 (RNA binding motif protein 15),3.14 (active)
RBM15 (RNA binding motif protein 15),4.96 (active)
